Measurements taken from the supplement of paper PMC12819154, “High-throughput peptide-centric local stability assay extends protein–ligand identification to membrane proteins, tissues and bacteria” (Nature Structural & Molecular Biology, 2025).
Some of the results follow. Most entries show no effect beyond the scatter of the controls.

Protein sequences, listed by entry. Tags and fused reporters are not part of them. Lines headed by an entry give the natural chain unless they say otherwise; changes in a name come on top.
UniProt Q86W42: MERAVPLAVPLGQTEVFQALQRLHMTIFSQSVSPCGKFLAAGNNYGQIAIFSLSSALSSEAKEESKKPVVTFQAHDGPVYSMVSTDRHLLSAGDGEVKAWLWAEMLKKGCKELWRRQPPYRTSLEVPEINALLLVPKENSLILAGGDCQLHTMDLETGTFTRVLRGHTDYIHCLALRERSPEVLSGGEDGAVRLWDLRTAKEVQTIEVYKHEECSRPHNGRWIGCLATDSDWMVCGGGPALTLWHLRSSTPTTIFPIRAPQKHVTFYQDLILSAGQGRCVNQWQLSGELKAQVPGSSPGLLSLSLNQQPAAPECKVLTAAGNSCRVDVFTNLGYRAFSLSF
UniProt Q8IYS0, whole entry: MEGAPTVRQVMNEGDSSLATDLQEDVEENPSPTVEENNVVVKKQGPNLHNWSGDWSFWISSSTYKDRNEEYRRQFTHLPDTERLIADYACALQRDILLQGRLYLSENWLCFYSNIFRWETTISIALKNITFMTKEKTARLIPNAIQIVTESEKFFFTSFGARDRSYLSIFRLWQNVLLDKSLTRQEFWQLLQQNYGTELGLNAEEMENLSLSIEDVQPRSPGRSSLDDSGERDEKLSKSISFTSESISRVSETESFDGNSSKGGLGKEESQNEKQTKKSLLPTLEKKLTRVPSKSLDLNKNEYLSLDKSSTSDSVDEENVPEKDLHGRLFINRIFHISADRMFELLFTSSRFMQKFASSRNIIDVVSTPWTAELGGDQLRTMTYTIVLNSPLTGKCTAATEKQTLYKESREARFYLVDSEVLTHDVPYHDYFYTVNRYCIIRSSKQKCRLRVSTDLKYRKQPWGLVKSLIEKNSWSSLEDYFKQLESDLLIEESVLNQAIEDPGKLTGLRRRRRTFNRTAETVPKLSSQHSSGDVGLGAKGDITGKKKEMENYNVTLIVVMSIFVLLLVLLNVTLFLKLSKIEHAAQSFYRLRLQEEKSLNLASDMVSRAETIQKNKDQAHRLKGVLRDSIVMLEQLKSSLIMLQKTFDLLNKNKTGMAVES
UniProt Q8IX07: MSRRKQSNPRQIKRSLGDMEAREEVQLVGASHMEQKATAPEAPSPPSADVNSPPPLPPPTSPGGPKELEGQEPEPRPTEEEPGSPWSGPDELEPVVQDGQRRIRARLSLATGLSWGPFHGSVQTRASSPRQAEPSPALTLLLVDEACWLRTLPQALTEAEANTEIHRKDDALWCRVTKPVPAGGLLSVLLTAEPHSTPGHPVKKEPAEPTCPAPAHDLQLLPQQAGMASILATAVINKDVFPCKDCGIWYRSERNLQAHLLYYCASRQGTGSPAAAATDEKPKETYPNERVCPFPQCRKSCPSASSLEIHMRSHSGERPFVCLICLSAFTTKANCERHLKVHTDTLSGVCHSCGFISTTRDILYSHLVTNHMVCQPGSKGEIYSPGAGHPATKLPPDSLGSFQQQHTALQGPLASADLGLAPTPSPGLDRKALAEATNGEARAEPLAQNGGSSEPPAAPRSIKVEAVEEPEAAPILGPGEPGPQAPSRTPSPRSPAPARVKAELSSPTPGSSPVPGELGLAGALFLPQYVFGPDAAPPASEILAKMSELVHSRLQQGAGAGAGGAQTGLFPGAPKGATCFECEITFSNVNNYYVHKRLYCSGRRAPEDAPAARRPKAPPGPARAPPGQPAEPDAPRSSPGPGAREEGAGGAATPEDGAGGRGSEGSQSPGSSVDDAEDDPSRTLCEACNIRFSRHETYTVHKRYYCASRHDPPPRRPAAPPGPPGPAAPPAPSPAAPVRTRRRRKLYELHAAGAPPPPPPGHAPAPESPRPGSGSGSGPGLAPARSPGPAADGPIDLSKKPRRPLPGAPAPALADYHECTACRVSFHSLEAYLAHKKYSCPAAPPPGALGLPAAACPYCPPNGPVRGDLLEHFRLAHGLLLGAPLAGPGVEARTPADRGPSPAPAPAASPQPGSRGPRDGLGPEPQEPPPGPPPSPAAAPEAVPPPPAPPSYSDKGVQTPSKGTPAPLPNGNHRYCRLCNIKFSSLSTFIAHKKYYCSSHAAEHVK
UniProt Q8IWT3: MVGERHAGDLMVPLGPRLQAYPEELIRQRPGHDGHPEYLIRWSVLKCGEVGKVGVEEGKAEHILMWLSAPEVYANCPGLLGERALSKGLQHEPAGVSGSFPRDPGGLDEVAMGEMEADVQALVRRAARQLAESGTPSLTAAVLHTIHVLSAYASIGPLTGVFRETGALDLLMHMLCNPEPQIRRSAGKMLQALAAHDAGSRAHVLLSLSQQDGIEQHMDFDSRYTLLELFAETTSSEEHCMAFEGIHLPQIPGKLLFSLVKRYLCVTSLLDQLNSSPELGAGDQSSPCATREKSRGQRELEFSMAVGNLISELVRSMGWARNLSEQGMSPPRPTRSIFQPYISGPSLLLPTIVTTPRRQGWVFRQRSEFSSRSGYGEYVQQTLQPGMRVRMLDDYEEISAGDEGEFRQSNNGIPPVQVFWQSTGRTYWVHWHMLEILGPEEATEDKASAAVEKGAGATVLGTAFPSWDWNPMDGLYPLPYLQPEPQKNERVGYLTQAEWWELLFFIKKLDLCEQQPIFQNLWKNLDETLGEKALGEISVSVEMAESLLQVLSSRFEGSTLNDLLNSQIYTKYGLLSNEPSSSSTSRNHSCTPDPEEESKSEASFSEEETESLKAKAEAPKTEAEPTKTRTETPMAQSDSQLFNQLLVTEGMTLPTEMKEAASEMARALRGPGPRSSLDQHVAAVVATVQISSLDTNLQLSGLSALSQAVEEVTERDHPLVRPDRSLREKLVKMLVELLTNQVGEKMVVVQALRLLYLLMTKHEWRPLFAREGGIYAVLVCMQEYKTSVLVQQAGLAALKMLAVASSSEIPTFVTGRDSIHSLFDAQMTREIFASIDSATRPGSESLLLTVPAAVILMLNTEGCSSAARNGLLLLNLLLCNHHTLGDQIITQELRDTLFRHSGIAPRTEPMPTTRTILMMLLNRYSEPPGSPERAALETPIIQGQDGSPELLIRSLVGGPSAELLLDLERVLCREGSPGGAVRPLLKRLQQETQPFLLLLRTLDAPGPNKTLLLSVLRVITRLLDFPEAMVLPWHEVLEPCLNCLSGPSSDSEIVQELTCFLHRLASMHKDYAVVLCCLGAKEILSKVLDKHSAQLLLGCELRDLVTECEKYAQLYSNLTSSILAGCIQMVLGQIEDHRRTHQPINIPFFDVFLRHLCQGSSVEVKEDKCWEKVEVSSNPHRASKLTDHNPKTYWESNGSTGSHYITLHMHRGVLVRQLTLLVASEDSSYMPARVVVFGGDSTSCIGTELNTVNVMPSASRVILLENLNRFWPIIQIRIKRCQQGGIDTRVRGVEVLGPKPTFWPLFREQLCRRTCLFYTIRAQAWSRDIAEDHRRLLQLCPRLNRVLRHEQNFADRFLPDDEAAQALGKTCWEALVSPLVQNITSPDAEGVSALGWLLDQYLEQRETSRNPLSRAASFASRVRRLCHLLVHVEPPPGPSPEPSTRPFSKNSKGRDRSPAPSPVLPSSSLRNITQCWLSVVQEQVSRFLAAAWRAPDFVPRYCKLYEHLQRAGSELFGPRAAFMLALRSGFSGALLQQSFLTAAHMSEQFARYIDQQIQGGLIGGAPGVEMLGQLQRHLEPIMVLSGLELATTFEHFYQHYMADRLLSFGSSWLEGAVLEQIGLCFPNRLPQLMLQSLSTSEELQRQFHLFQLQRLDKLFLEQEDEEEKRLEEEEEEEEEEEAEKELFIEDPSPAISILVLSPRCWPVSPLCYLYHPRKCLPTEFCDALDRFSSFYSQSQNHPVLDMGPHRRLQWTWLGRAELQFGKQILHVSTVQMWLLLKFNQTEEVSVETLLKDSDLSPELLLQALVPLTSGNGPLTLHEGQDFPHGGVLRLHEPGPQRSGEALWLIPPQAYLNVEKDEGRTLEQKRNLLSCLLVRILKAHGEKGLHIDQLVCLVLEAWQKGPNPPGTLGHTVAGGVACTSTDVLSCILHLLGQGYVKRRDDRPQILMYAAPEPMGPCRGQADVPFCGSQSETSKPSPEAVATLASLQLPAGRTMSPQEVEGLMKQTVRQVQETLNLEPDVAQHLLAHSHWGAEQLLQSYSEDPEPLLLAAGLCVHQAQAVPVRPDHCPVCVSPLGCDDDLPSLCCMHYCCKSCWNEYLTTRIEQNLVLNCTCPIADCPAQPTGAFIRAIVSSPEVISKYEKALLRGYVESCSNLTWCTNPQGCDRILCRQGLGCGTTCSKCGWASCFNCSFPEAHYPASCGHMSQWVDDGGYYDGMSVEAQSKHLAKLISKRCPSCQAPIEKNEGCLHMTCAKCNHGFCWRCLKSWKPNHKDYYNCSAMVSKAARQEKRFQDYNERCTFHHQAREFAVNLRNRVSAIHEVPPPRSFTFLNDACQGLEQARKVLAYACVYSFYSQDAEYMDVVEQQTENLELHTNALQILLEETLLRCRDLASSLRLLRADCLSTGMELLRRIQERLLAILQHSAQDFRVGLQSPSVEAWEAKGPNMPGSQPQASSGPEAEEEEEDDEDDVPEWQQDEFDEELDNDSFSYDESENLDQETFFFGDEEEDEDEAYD
UniProt Q86WX3: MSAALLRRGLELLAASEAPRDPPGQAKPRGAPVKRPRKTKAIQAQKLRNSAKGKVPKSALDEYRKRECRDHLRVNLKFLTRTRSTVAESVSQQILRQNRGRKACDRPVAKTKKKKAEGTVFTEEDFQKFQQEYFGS
UniProt Q8N3Z3: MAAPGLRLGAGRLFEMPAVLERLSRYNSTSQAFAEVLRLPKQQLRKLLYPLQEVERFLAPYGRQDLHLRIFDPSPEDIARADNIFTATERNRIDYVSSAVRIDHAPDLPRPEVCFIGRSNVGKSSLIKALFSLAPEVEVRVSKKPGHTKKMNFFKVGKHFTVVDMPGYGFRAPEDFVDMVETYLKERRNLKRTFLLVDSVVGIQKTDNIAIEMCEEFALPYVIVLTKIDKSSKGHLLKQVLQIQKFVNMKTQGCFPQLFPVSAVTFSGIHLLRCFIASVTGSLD
UniProt Q8N3D4: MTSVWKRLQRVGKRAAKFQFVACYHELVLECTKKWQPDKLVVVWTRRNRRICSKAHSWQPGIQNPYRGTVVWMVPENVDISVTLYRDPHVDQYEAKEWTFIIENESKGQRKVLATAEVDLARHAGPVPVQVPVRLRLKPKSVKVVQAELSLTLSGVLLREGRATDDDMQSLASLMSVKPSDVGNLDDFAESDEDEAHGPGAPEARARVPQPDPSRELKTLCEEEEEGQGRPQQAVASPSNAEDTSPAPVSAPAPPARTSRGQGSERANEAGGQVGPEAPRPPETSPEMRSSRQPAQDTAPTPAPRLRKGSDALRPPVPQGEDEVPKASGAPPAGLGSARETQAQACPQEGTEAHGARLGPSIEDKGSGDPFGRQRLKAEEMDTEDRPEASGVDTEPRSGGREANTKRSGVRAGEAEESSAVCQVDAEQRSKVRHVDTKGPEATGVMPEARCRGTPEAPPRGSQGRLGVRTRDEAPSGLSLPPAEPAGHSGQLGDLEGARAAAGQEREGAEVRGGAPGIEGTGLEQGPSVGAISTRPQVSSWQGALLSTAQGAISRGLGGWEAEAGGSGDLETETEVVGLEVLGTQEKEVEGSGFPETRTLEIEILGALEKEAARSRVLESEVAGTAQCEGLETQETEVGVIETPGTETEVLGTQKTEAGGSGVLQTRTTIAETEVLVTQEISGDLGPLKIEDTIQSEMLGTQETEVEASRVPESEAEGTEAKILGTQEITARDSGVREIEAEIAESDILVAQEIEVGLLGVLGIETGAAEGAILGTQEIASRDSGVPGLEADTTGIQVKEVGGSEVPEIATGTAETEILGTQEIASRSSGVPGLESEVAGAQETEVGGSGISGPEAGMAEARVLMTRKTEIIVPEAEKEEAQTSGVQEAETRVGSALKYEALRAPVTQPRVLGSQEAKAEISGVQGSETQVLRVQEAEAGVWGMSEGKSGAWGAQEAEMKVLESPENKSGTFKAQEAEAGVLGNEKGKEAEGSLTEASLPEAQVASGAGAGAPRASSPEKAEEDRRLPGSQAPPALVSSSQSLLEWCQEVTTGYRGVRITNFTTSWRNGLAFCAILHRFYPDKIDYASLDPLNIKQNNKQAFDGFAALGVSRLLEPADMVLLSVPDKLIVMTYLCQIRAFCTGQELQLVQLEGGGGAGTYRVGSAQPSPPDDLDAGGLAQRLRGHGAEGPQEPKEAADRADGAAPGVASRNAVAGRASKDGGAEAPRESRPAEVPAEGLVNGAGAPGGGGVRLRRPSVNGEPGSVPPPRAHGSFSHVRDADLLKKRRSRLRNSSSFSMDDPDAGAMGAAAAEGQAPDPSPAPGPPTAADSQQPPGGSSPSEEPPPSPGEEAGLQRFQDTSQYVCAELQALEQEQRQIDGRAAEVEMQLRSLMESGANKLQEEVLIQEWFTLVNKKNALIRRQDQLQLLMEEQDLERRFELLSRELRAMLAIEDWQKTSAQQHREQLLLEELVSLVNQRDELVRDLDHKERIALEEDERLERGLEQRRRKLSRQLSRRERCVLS

The targets below were run with CN[C@@H]1C[C@H]2O[C@@](C)([C@@H]1OC)n1c3ccccc3c3c4c(c5c6ccccc6n2c5c31)C(=O)NC4 [staurosporine] (assay: log2 fold change of tryptic peptide abundance, ligand vs vehicle (limited proteolysis) (log2 ratio); higher = more trypsin-susceptible (destabilized)). Settings: ligand concentration: 20 uM; sample: K562 cleared lysate; digestion: 4 min, 22 C (HT-PELSA RT4min, Orbitrap Astral).
“THOC6 (peptide sequence: ERSPEVLSGGEDGAVR, peptide start residue: 178) (UniProt Q86W42)” was tested, and the log2 fold change was -0.506. “MRPL41 (peptide sequence: YGFEPTQEGK, peptide start residue: 117) (UniProt Q8IXM3)” was tested, and the log2 fold change was -0.137. “UniProt Q8IYS0 (peptide sequence: SLLPTLEK, peptide start residue: 279)” showed a log2 fold change of 0.131. In the case of “ZFPM1 (peptide sequence: DVFPCKDCGIWYR, peptide start residue: 239) (UniProt Q8IX07)”, the log2 fold change is reported as 0.433. Target “CUL9 (peptide sequence: MLQALAAHDAGSR, peptide start residue: 189) (UniProt Q8IWT3)” has a log2 fold change of -0.395. For “RPS19BP1 (peptide sequence: GLELLAASEAPRDPPGQAKPR, peptide start residue: 9) (UniProt Q86WX3)”, the log2 fold change was 0.136. “GTPBP8 (peptide sequence: IFDPSPEDIAR, peptide start residue: 70) (UniProt Q8N3Z3)” was tested, and the log2 fold change was -0.131. “EHBP1L1 (peptide sequence: RPSVNGEPGSVPPPR, peptide start residue: 1255) (UniProt Q8N3D4)” gave a log2 fold change of 0.488. In the case of “PLEKHM2 (peptide sequence: ASRDPWC, peptide start residue: 1013) (UniProt Q8IWE5)”, the log2 fold change is reported as -0.558.
